{
  "source": "paper PMC3859580",
  "system": "Mcm2-7(3K499A) complex (Saccharomyces cerevisiae)",
  "assay": "EMSA",
  "conditions": "5 mM ATP, 10 mM Mg acetate, 50-400 nM complex, 1 nM DNA, complex reduced vs wild type, EMSA: 20 mM Tris-HCl pH 7.5, 10 mM Mg acetate, 100 uM EDTA, 5 mM DTT, 37 C, 10 min, 5% native TBE gel with 5% glycerol, 0.1% NP-40, 10 mM Mg acetate, recombinant protein, label: 5'-32P, single-stranded DNA",
  "note": "For at least one entry, the source does not settle the construct or the ends of the probe. The comparison behind a weaker result is the experiment's own reference, which may not be listed here.",
  "data": [
    {"sequence": "ATGTCCTAGCAAGCCAGAATTCGGCAGCGTCTTTTTTTTTTTTTTTTTTTTTTTTTTTTTTTTTTTTTTTTTTTTTTTTTTTTTTTTTTTT [90-base ssDNA oligonucleotide with (T)60 tail]", "values": [
      {"measurement": "binding result", "value": "binds more weakly"}
    ]}
  ]
}
